The list does not hold the whole screen: it is rich in T/C values a quarter to a half above the control, in often repeated tests (any T/C) and in doses without a T/C. Further doses and runs are listed elsewhere. T/C gives the treated animals as a percentage of the vehicle group. Schedules are NCI's codes, read here as Q, the interval in days (D) or hours (H), X, the number of doses. Some T/C values carry the count of animals alive at the toxicity check (mostly the fifth day); where none is given, no animal had died by that day. Some entries give survivors of the animals treated and no T/C: the source files T/C as zero there, which appears to mark a toxic dose or a test without result, not a measured value. Survivors were counted at the toxicity check, usually on the fifth day, unless a day is given; later deaths do not show. Some entries were tested several times; the values are given in rising order. For survival time, the PubChem record calls one and a half times the control and up active, and a quarter to a half above the control has no call in these data; cut-offs in other NCI protocols can differ. *1 amine or outer side, *2 acyl side, *3 side chain or, on linkers, in order; H or OH if unused. Where a SMILES comes first, the peptide text is derived from it. [ ]: non-standard residue; d: D form. The star is where a group is joined. X2 = CCC(=O)CC1CC(C)CC(C(=O)[*:2])N1[*:1]; X1 = CCCCCCCCC(C)C(=O)*; Aib = CC(C)(N)C(=O)O; X3 = CC(CN(C)CCO)N*
System: BDF1 mice, colon carcinoma 38 sc, T/C %
Test: NCI In Vivo Anticancer Drug Screen. Data for tumor model Colon Carcinoma 38 (subcutaneous) in B6D2F1 (BDF1) mice
Summary of the method: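 Compound antitumor activity was assessed in mice carrying transplantable tumors. Survival or tumor size was recorded, and each value is the treated-group measurement divided by that of the vehicle-treated control group.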

[1] = T/C endpoint: median tumor weight (est.), dose: 800.0 mg/kg/injection, schedule: Q07DX002 (ip), vehicle: Klucel (hydroxypropylcellulose) (HPC), higher T/C = larger tumour
[2] = T/C endpoint: median tumor weight (est.), dose: 40.0 mg/kg/injection, schedule: Q07DX002 (ip), vehicle: saline, higher T/C = larger tumour
[3] = T/C endpoint: median tumor weight (est.), dose: 800.0 mg/kg/injection, schedule: Q07DX002 (ip), vehicle: saline with Tween-80, higher T/C = larger tumour
[4] = T/C endpoint: median tumor weight (est.), dose: 400.0 mg/kg/injection, schedule: Q07DX002 (ip), vehicle: saline with Tween-80, higher T/C = larger tumour

SMILES: COc1cc(NCc2ccc3nc(N)nc(N)c3c2C)cc(OC)c1OC (tested in a mixture with another compound)
- T/C (T/C endpoint: median tumor weight (est.), dose: 70.0 mg/kg/injection, schedule: Q07DX002 (ip), vehicle: water, evaluated on day 20, higher T/C = larger tumour): 125 % of control [9 of 10 alive on day 20]
- survivor count (T/C endpoint: median tumor weight (est.), dose: 354.0 mg/kg/injection, schedule: Q07DX002 (ip), vehicle: water, higher T/C = larger tumour): 0 of 10 on day 20
- survivor count (T/C endpoint: median tumor weight (est.), dose: 531.0 mg/kg/injection, schedule: Q07DX002 (ip), vehicle: water, higher T/C = larger tumour): 0 of 10 on day 20

SMILES: CCN(CC)CC(C)(C)C(=O)/C=C/c1ccccc1
- survivor count (T/C endpoint: median tumor weight (est.), dose: 250.0 mg/kg/injection, schedule: Q07DX002 (ip), vehicle: saline, higher T/C = larger tumour): 3 of 10 on day 20
- survivor count (T/C endpoint: median tumor weight (est.), dose: 500.0 mg/kg/injection, schedule: Q07DX002 (ip), vehicle: saline, higher T/C = larger tumour): 0 of 10 on day 20
- survivor count (T/C endpoint: median tumor weight (est.), dose: 1000.0 mg/kg/injection, schedule: Q07DX002 (ip), vehicle: saline, higher T/C = larger tumour): 0 of 10 on day 20

SMILES: CCCCCCCCC(C)C(=O)N1CCCC1C(=O)N1C(CC(=O)CC)CC(C)CC1C(=O)NC(C)C(=O)NC(C)(C)C(=O)NC(C)(C)C(=O)NC(C(=O)NC(C)C(=O)NC(C)(C)C(=O)NC(C)(C)C(=O)NC(C)CN(C)CCO)C(C)CC (configuration not stated) (X1-P[X2]A[Aib][Aib]IA[Aib][Aib]-X3; configuration not given here)
- survivor count (T/C endpoint: median tumor weight (est.), dose: 10.0 mg/kg/injection, schedule: Q07DX002 (ip), vehicle: Klucel (hydroxypropylcellulose) (HPC), higher T/C = larger tumour): 3 of 10 on day 20
- survivor count (T/C endpoint: median tumor weight (est.), dose: 20.0 mg/kg/injection, schedule: Q07DX002 (ip), vehicle: Klucel (hydroxypropylcellulose) (HPC), higher T/C = larger tumour): 0 of 10 on day 20

SMILES: Oc1ccc(O)cc1
- survivor count (T/C endpoint: median tumor weight (est.), dose: 200.0 mg/kg/injection, schedule: Q07DX002 (ip), vehicle: suspension in saline, higher T/C = larger tumour): 0 of 10 on day 20

SMILES: O=c1ssc(=Nc2ccccc2)n1-c1ccccc1
- survivor count [1]: 2 of 10 on day 20 and 3 of 9 on day 20

SMILES: O=[N+]([O-])c1nccn1CC(O)CO (configuration not stated)
- T/C (T/C endpoint: median tumor weight (est.), dose: 25.0 mg/kg/injection, schedule: Q07DX002 (ip), vehicle: saline, evaluated on day 20, higher T/C = larger tumour): 127 % of control
- T/C (T/C endpoint: median tumor weight (est.), dose: 50.0 mg/kg/injection, schedule: Q07DX002 (ip), vehicle: saline, evaluated on day 20, higher T/C = larger tumour): 129 % of control
- T/C (T/C endpoint: median tumor weight (est.), dose: 200.0 mg/kg/injection, schedule: Q07DX002 (ip), vehicle: saline, evaluated on day 20, higher T/C = larger tumour): 136 % of control
- T/C (T/C endpoint: median tumor weight (est.), dose: 400.0 mg/kg/injection, schedule: Q07DX002 (ip), vehicle: saline, evaluated on day 20, higher T/C = larger tumour): 149 % of control [9 of 10 alive on day 20]

SMILES: COC1/C=C\C=C(/C)C(=O)NC2=CC(=O)C=C(C2=O)C(OC)C(C)CC(OC)C(OC)C(C)/C=C(/C)C1OC(N)=O (configuration not stated)
- T/C (T/C endpoint: median tumor weight (est.), dose: 0.37 mg/kg/injection, schedule: Q07DX002 (ip), vehicle: Klucel (hydroxypropylcellulose) (HPC), evaluated on day 20, higher T/C = larger tumour): 129 % of control
- T/C (T/C endpoint: median tumor weight (est.), dose: 0.75 mg/kg/injection, schedule: Q07DX002 (ip), vehicle: Klucel (hydroxypropylcellulose) (HPC), evaluated on day 20, higher T/C = larger tumour): 130 % of control
- T/C (T/C endpoint: median tumor weight (est.), dose: 3.0 mg/kg/injection, schedule: Q07DX002 (ip), vehicle: Klucel (hydroxypropylcellulose) (HPC), evaluated on day 20, higher T/C = larger tumour): 142 % of control

SMILES: O=CCC(O)C(O)C(O)CO (configuration not stated)
- T/C (T/C endpoint: median tumor weight (est.), dose: 1200.0 mg/kg/injection, schedule: Q07DX002 (ip), vehicle: suspension in saline, evaluated on day 20, higher T/C = larger tumour): 129 % of control

SMILES: NC(=O)c1cn(C2OC(CO)C(O)C2O)c2ncnc(N)c12 (configuration not stated)
- survivor count (T/C endpoint: median tumor weight (est.), dose: 8.0 mg/kg/injection, schedule: Q07DX002 (ip), vehicle: saline with Tween-80, higher T/C = larger tumour): 1 of 10 on day 20
- survivor count (T/C endpoint: median tumor weight (est.), dose: 16.0 mg/kg/injection, schedule: Q07DX002 (ip), vehicle: saline with Tween-80, higher T/C = larger tumour): 0 of 10 on day 20
- survivor count (T/C endpoint: median tumor weight (est.), dose: 16.0 mg/kg/injection, schedule: Q07DX002 (ip), vehicle: suspension in saline, higher T/C = larger tumour): 0 of 10 on day 20

SMILES: O=NN(CCCl)C(=O)NC1[C@H](O)CCC[C@@H]1O (some centres not stated)
- T/C (T/C endpoint: median tumor weight (est.), dose: 2.5 mg/kg/injection, schedule: Q07DX002 (ip), vehicle: saline, evaluated on day 20, higher T/C = larger tumour): 135 % of control
- survivor count (T/C endpoint: median tumor weight (est.), dose: 20.0 mg/kg/injection, schedule: Q07DX002 (ip), vehicle: saline, higher T/C = larger tumour): 2 of 10 on day 20 and 3 of 10 on day 20
- survivor count [2]: 0 of 10 on day 20

SMILES: CN(C)C1C(=O)C(C(=O)NP(=O)(NCCCO)N(CCCl)CCCl)=C(O)C2(O)C(=O)C3=C(O)c4c(O)cccc4C(C)(O)C3CC12 (configuration not stated)
- survivor count [3]: 0 of 10 on day 20

SMILES: CCOC1=Cc2c(oc3c(C(C)(C)C)cc(OCC)cc23)OC(C(C)(C)C)=C1
- T/C (T/C endpoint: median tumor weight (est.), dose: 12.5 mg/kg/injection, schedule: Q07DX002 (ip), vehicle: saline with Tween-80, evaluated on day 20, higher T/C = larger tumour): 143 % of control

SMILES: O=NN(CCCl)C(=O)NC1OC(CO)C(O)C(O)C1O (configuration not stated)
- survivor count (T/C endpoint: median tumor weight (est.), dose: 32.0 mg/kg/injection, schedule: Q07DX002 (ip), vehicle: saline, higher T/C = larger tumour): 3 of 10 on day 20 and 4 of 10 on day 20
- survivor count [2]: 5 of 10 on day 20
- survivor count (T/C endpoint: median tumor weight (est.), dose: 64.0 mg/kg/injection, schedule: Q07DX002 (ip), vehicle: saline, higher T/C = larger tumour): 0 of 10 on day 20
- survivor count (T/C endpoint: median tumor weight (est.), dose: 128.0 mg/kg/injection, schedule: Q07DX002 (ip), vehicle: saline, higher T/C = larger tumour): 0 of 10 on day 20

SMILES: NCC1CCC(C(=O)O)CC1 (configuration not stated)
- survivor count [4]: 1 of 10 on day 20
- survivor count [3]: 0 of 10 on day 20

SMILES: N[C@H](C(=O)O)[C@@H]1CC(Cl)=NO1
- T/C (T/C endpoint: median survival time, dose: 120.0 mg/kg/injection, schedule: Q04DX002 (ip), vehicle: suspension in saline, higher T/C = longer survival): 133 % of control [8 of 10 alive on day 100]
- T/C (T/C endpoint: median tumor weight (est.), dose: 4.0 mg/kg/injection, schedule: Q07DX003 (ip), vehicle: saline, evaluated on day 20, higher T/C = larger tumour): 125 % of control
- T/C (T/C endpoint: median tumor weight (est.), dose: 8.0 mg/kg/injection, schedule: Q07DX003 (ip), vehicle: saline, evaluated on day 20, higher T/C = larger tumour): 141 % of control
- T/C (T/C endpoint: median tumor weight (est.), dose: 16.0 mg/kg/injection, schedule: Q07DX003 (ip), vehicle: saline, evaluated on day 20, higher T/C = larger tumour): 134 % of control
- T/C (T/C endpoint: median tumor weight (est.), dose: 32.0 mg/kg/injection, schedule: Q07DX003 (ip), vehicle: saline, evaluated on day 20, higher T/C = larger tumour): 141 % of control

SMILES: CCCCc1ccc2nc(NC(=O)OC)[nH]c2c1
- T/C (T/C endpoint: median tumor weight (est.), dose: 100.0 mg/kg/injection, schedule: Q07DX002 (ip), vehicle: saline with Tween-80, evaluated on day 20, higher T/C = larger tumour): 126 % of control
- survivor count [4]: 6 of 10 on day 20

SMILES: Nc1nc(N)c2c(ccc3c2ccn3Cc2cccc([N+](=O)[O-])c2)n1
- survivor count (T/C endpoint: median tumor weight (est.), dose: 50.0 mg/kg/injection, schedule: Q07DX002 (ip), vehicle: saline with Tween-80, higher T/C = larger tumour): 0 of 10 on day 20

SMILES: Nc1n[n+](-c2ccc(Cl)cc2)no1
- T/C (T/C endpoint: median tumor weight (est.), dose: 25.0 mg/kg/injection, schedule: Q07DX002 (ip), vehicle: water, evaluated on day 20, higher T/C = larger tumour): 126 % of control
- T/C (T/C endpoint: median tumor weight (est.), dose: 50.0 mg/kg/injection, schedule: Q07DX002 (ip), vehicle: water, evaluated on day 20, higher T/C = larger tumour): 125 % of control
- survivor count (T/C endpoint: median tumor weight (est.), dose: 100.0 mg/kg/injection, schedule: Q07DX002 (ip), vehicle: water, higher T/C = larger tumour): 0 of 10 on day 20
- survivor count (T/C endpoint: median tumor weight (est.), dose: 200.0 mg/kg/injection, schedule: Q07DX002 (ip), vehicle: water, higher T/C = larger tumour): 0 of 10 on day 20

SMILES: N#CC(=C1C=CC(=NO)C=C1)c1ccc(Cl)cc1
- T/C (T/C endpoint: median tumor weight (est.), dose: 50.0 mg/kg/injection, schedule: Q07DX002 (ip), vehicle: saline with Tween-80, evaluated on day 20, higher T/C = larger tumour): 128 % of control
- T/C (T/C endpoint: median tumor weight (est.), dose: 200.0 mg/kg/injection, schedule: Q07DX002 (ip), vehicle: saline with Tween-80, evaluated on day 20, higher T/C = larger tumour): 133 % of control

SMILES: O=c1ccc2ccccc2o1
- survivor count (T/C endpoint: median tumor weight (est.), dose: 400.0 mg/kg/injection, schedule: Q07DX002 (ip), vehicle: Klucel (hydroxypropylcellulose) (HPC), higher T/C = larger tumour): 0 of 10 on day 20
- survivor count [1]: 0 of 10 on day 20

SMILES: C[n+]1c(-c2cccc(OCCOCCOc3cccc(-c4c5cc(N)ccc5c5ccc(N)cc5[n+]4C)c3)c2)c2cc(N)ccc2c2ccc(N)cc21
- survivor count (T/C endpoint: median tumor weight (est.), dose: 32.0 mg/kg/injection, schedule: Q07DX002 (ip), vehicle: water, higher T/C = larger tumour): 0 of 10 on day 20
- survivor count (T/C endpoint: median tumor weight (est.), dose: 64.0 mg/kg/injection, schedule: Q07DX002 (ip), vehicle: water, higher T/C = larger tumour): 0 of 10 on day 20
- survivor count (T/C endpoint: median tumor weight (est.), dose: 128.0 mg/kg/injection, schedule: Q07DX002 (ip), vehicle: water, higher T/C = larger tumour): 0 of 10 on day 20

SMILES: c1csc(C[N+]23CN4CN(CN(C4)C2)C3)c1
- survivor count (T/C endpoint: median tumor weight (est.), dose: 800.0 mg/kg/injection, schedule: Q07DX002 (ip), vehicle: saline, higher T/C = larger tumour): 0 of 10 on day 20
